Laboratory results from patent US9757378B2, “Methods to modulate acute myeloid leukemia stem/progenitor cell expansion and/or differentiation” (UNIVERSITE DE MONTREAL, priority 2013, dated 2017).

These molecules were tested on primary human AML cells (assay: Secondary screen: dose response, five serial dilutions (CD34/CD15 flow cytometry)). Conditions: relative to dose tested in primary screen.
Type: cell-based

SMILES	optimal concentration in 2ndary screen
O=C(Nc1ccc2c(c1)OCCO2)c1sc2ccccc2c1Cl [UM0045609, 3-chloro-N-(2,3-dihydro-1,4-benzodioxin-6-yl)-1-benzithiophene-2-carboxamide]	3×
COc1cccc2oc(-c3ccccc3)cc(=O)c12 [UM0113898, 5-Methoxyflavone]	2×
COc1ccc(-c2oc3cc(O)cc(O)c3c(=O)c2O)cc1 [UM0119298, Kaempferide]	1×
CNC(=O)c1cc2c(cn1)[nH]c1ccccc12 [UM0119840, N-Methyl-beta-carboline-3-carboxamide]	2×
COc1ccc(-c2coc3c(O)c(OC)ccc3c2=O)cc1 [UM0121179, Retusin 7-Methylether]	3×
COC(=O)c1ccc2c(c1)[nH]c1ncnc(NCCCN3CCCCC3)c12 [UM0125729, methyl 4-((3-(piperidin-1-yl)propyl)amino)-9H-pyrimido[4,5-b]indole-7-carboxylate]	1×
